# Percent effect of library compounds

Source: ChEMBL document CHEMBL3988442, “University of Dundee, Small-Polar-MMV Screening Library” (2021).

Mtb glucose medium: 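Phenotypic screen: M. tuberculosis growth, glucose 7H9 medium, 3 days; the read-out is not stated. Tested at 50 µM. The record gives no direction; compounds that gave an IC50 in retests scored well above the rest, so higher reads as more growth inhibition. About 69,000 compounds were tested under these conditions; 1.1% (about 760) showed 50% or more at least once.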
Mtb cholesterol medium: 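Phenotypic screen: M. tuberculosis growth, cholesterol and DPPC medium, 4 days; the read-out is not stated. Concentration: 50 µM. The record gives no direction; compounds that gave an IC50 in retests scored well above the rest, so higher reads as more growth inhibition. Of about 69,000 compounds tested this way, about 370 (0.54%) reached 50% or more in at least one test.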

Each number is a percent effect as filed.
The record does not define 0% and 100%; most values in the screen are far below 50% and negative numbers occur (in some assays of this library far below -100).
This is an unselected part of the compounds tested.
Two or more numbers in one place are separate tests of the same structure; such repeats can differ widely.

* CC(C)N1CCN(C(=O)Nc2cnc3c(cnn3C(C)C)c2)CC1 | Mtb glucose medium: -40.78% and -1.566%; Mtb cholesterol medium: 2.879%
* CC1CCCCN1C(=O)c1n[nH]c(=O)c2ccccc12 (configuration not stated) | Mtb glucose medium: -9%; Mtb cholesterol medium: -32.76%
* CCN1CCN(CC(O)c2cc(Cl)ccc2Cl)CC1 (configuration not stated) | Mtb glucose medium: 17.01%; Mtb cholesterol medium: 1.135%
* Cc1cccnc1CC(C)N(C)C(=O)c1ccoc1C (configuration not stated) | Mtb glucose medium: -40.83%; Mtb cholesterol medium: -39.32%
* [H][C@@]12CCN(C(=O)c3cscn3)[C@]1([H])CN(C(=O)C1CCOC1)C2 (some centres not stated) | Mtb glucose medium: -58.62%; Mtb cholesterol medium: -18.83%
* N#Cc1cccnc1N1CCCN(C(=O)CCc2cccs2)CC1 | Mtb glucose medium: 31.64%; Mtb cholesterol medium: 13.62%
* CC(=O)N1CCC2(CC1)CN(C)C(=O)C[C@H]2C(F)(F)F.Cl | Mtb glucose medium: -0.7347% and -25.55%; Mtb cholesterol medium: -8.457%
* Cc1cc(C(=O)N2CCc3nnc(N)cc3C2)c(C)n1-c1cccnc1 | Mtb glucose medium: -48.65%; Mtb cholesterol medium: -19.69%
* Cc1cc(N2CCC(n3cc(CN4CCC[C@@H]4CO)nn3)CC2)ccn1 | Mtb glucose medium: 1.847% and -11.15%; Mtb cholesterol medium: 1.554%
* COc1cc(-c2nc3c([nH]2)CCCNC3=O)cc(OC)c1OC | Mtb glucose medium: 20.76%; Mtb cholesterol medium: -1.087% and 0.7267%
* CCOc1ccc(CC(CNC(=O)c2ccc(C)s2)C(N)=O)cc1 (configuration not stated) | Mtb glucose medium: 10.81%; Mtb cholesterol medium: 12.88%
* O=C(CNC1CCc2ncnn2C1)N(Cc1cccs1)C1CC1 (configuration not stated) | Mtb glucose medium: -8.164% and -8.408%; Mtb cholesterol medium: 3.388%
* COC[C@@H]1CCCN1C(=O)CCc1c(C)nn(C)c1C | Mtb glucose medium: -15.8%; Mtb cholesterol medium: 4.647%
* Cc1ccccc1CN(C)C(=O)CN1CCOC(Cn2cncn2)C1 (configuration not stated) | Mtb glucose medium: -15.86%; Mtb cholesterol medium: -24.62%
* O=C(O)C(F)(F)F.[H][C@@]12CN(Cc3scnc3C)C[C@H](C(=O)NCC3CC3)[C@]1([H])CCO2 | Mtb glucose medium: -36.72%; Mtb cholesterol medium: 13.38%
* CC(C)(C)c1coc([C@@H]2COCCN2Cc2csnn2)n1 | Mtb glucose medium: 13.52% and 1.422%; Mtb cholesterol medium: 13.95%
* Cc1nn(C)c2cnn(CCCNS(=O)(=O)Cc3ccccc3)c12 | Mtb glucose medium: -32.88%; Mtb cholesterol medium: -15.46%
* CC(C)C(C)n1nccc1NC(=O)Cn1cnc2ccccc21 (configuration not stated) | Mtb glucose medium: -17.89%; Mtb cholesterol medium: -6.185%
* O=C(O)C(F)(F)F.[H][C@@]12CN(Cc3ccccn3)C[C@]1([H])CN(C(=O)Cc1cccc(F)c1)C2 | Mtb glucose medium: -5.995%; Mtb cholesterol medium: 3.938%
* COCc1ccccc1C(=O)N1CCCC(n2nc(C)cc2C)C1 (configuration not stated) | Mtb glucose medium: 11.62%; Mtb cholesterol medium: -0.8192%
* Cc1cc(CNC(=O)NC(C)(CO)C2CC2)c(C)s1 (configuration not stated) | Mtb glucose medium: -0.5972% and -9.8%; Mtb cholesterol medium: 16.91%
* Cc1cn(Cc2ccc(F)c(F)c2)nc1N | Mtb glucose medium: -20.14%; Mtb cholesterol medium: -32%
* Cc1cccc(CNC2CC3(CCN(CCO)CC3)c3ccccc32)n1.O=C(O)C(F)(F)F.O=C(O)C(F)(F)F (configuration not stated) | Mtb glucose medium: -24.63%; Mtb cholesterol medium: -6.076%
* CC(=O)N1CCCC1c1cc(N2CCN(CC3CC3)CC2)cc(C)n1 (configuration not stated) | Mtb glucose medium: -15.06%; Mtb cholesterol medium: -5.383%
* c1ccc2sc(N3CCOC(Cn4cccn4)C3)nc2c1 (configuration not stated) | Mtb glucose medium: 51.48%; Mtb cholesterol medium: 4.798%
* CN(C)CCOc1cccc(CN2CCCC3(C2)CN(C)C(=O)O3)c1 (configuration not stated) | Mtb glucose medium: -16.73%; Mtb cholesterol medium: -25.87% and -2.784%
* O=C(O)C(F)(F)F.[H][C@@]12C[C@H](C(=O)N3CCCCO3)CN(CC3CCOCC3)[C@]1([H])CCO2 | Mtb glucose medium: -10.95%; Mtb cholesterol medium: 0.1952% and 3.616%
* CC(C)N1CCC(C(=O)N2CCN(c3cccc(C(=O)O)c3)CC2)CC1 | Mtb glucose medium: -3.087% and 8.748%; Mtb cholesterol medium: 16.87%
* Cc1ccc(-c2nc(CN3CC(n4nc(C)cc4C)C3)no2)cc1 | Mtb glucose medium: 6.27%; Mtb cholesterol medium: 4.365%
* Cc1nc(C)n(C2CCCN(C(=O)c3ccc4c(c3)COC4)C2)n1 (configuration not stated) | Mtb glucose medium: 14.04%; Mtb cholesterol medium: -2.438%
* O=C(c1ccc(Cl)cc1F)N1CCC(Cn2cc(CO)nn2)CC1 | Mtb glucose medium: 28.08%; Mtb cholesterol medium: 10.14%
* c1cn(Cc2ccc(N3CCCN(C4CCCC4)CC3)nc2)cn1 | Mtb glucose medium: -40.81%; Mtb cholesterol medium: -6.518%
* CNC(=O)CCCNCc1c(C)nn(C)c1N(C)C | Mtb glucose medium: -35.7%; Mtb cholesterol medium: -12.15%
* Cc1cc(CN2CCOC(CNc3cccnn3)C2)no1 (configuration not stated) | Mtb glucose medium: 11.78%; Mtb cholesterol medium: 3.23%
* COc1cccc(C(=O)N2CCCCC2c2nccs2)c1OC (configuration not stated) | Mtb glucose medium: 6.185%; Mtb cholesterol medium: -18.19%